According to US20120130060A1, “Modified antisense oligopeptides with anticancer properties and method of obtaining them” (priority 2010, published 2012):

Test: ED50 and therapeutic index, comparative characteristics of Anticanum and Taxotere
Assay type: in vivo

CC(=O)O[C@@]12CO[C@@H]1C[C@H](O)[C@@]1(C)C(=O)[C@H](O)C3=C(C)[C@@H](OC(=O)[C@H](O)[C@@H](NC(=O)OC(C)(C)C)c4ccccc4)C[C@@](O)([C@@H](OC(=O)c4ccccc4)[C@H]21)C3(C)C [Taxotere]
Therapeutic Index (LD50 rats i.v. / ED50): 3.42
Relative Therapeutic Index (relative to Taxotere): 1
